{"source": "paper PMC11676693", "about": "“Population Pharmacokinetic and Pharmacodynamic Study of Palbociclib in Children and Young Adults with Recurrent, Progressive, or Refractory Brain Tumors” (Pharmaceutics, 2024)", "tested_on": "proliferating neutrophils in the bone marrow compartment (ANC)", "experiment": "Population pharmacodynamic model of ANC (neutrophil dynamics)", "assay_type": "in vivo, children and young adults", "experimental": "A complete blood count (CBC) with differential was performed pre-therapy, weekly during course 1, and then weekly during courses 2 to 26. The CBC provided platelet and absolute neutrophil counts (ANCs).\nThe model describing the ANC and platelet dynamics has been previously described. The model for the ANC consisted of a bone marrow compartment with proliferating neutrophils, three transient compartments that represent the maturation process of the neutrophils from blasts to circulating neutrophils, and a circulating neutrophil compartment. The model included the negative feedback effects of endogenous G-CSF, which affected the growth rate of proliferating cells in a manner inversely proportional to the concentration of circulating neutrophils. We assumed that palbociclib only affected the proliferating neutrophils in the bone marrow compartment. We used a similar structural model for platelet dynamics. The model describing the neutrophil dynamics is shown in Equations (1)–(5) and Figure S1. (1) NPBM/dt=kinKM/KM+NcircIC50n/IC50n+Cpalblociclibn−kbpNPBM (2) dNT1/dt=kbpNPBM−NT1 (3) dNT2/dt=kbpNT1−NT2 (4) dNT3/dt=kbpNT2−NT3 (5) dNcirc/dt=kpbNT3−koutNcirc\nThe model parameters were as follows: NPBM: proliferating bone marrow stem cells; NT1, NT2, and NT3: transient compartments describing the maturation phases of the neutrophils; Ncirc: circulating neutrophils. Note that we were only able to observe this compartment. […]\nThe parameters for the pharmacodynamic model were estimated using nonlinear mixed-effects modeling with the SAEM algorithm as implemented in the Monolix® software version 2023R1 (Lixoft, Antony, France). The palbociclib pharmacokinetics were fixed to each individual’s post hoc estimated parameters (as determined above). […] A proportional residual error model was used to quantify the unexplained variability of the model. […]"}
{"smiles": "CC(=O)c1c(C)c2cnc(Nc3ccc(N4CCNCC4)cn3)nc2n(C2CCCC2)c1=O", "note": "[palbociclib]", "values": [{"measurement": "kbp (transition rate between transient compartments)", "setting": "ANC model, population estimate", "value": 0.78, "unit": "day⁻¹"}, {"measurement": "kin (stem cell proliferation rate)", "setting": "ANC model, population estimate", "value": 0.90, "unit": "day⁻¹"}, {"measurement": "MTT (time for committed stem cells to pass through the maturation compartments)", "setting": "estimated from current study", "value": 5.12, "unit": "days"}]}
